Some of the results follow. These are further read-outs of the screen, such as a control signal, another cell line or another target. No call is given for them. The list favours compounds with an active or inconclusive main result. Words in brackets tell the shape of the fitted curve; partial curves, single points and poor fits give uncertain potencies.

The assay in a line: Cell signaling CRE-BLA (Fsk stim). To be noted: CHO CRE-bla reporter (cAMP response element driving beta-lactamase), forskolin EC10, beta-lactamase ratio; measured here: 460 nm blue channel. An outline of the steps: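 Modulation of forskolin-driven signalling is measured in CHO cells carrying a CRE-controlled beta-lactamase reporter. Cells are stimulated with EC10 NKH 477 in the presence of titrated compound for 3 h at 37 °C, then loaded with CCF4 for 2 h at room temperature.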
`CC(C)C[C@@H](CC(=O)N[C@@H](CCCN)CC(=O)N[C@@H]1CCCC[C@H]1C(=O)N[C@H](CC(=O)N[C@@H](CCC(=O)O)CC(=O)O)Cc1ccccc1)NC(=O)[C@@H]1CCCC[C@H]1N`: the AC50 is 7.94 µM [falling, full curve, poor fit]. As for `COC(=O)c1ccccc1CCC(C)=O`, the concentration at half-maximal activity (AC50) is 0.251 µM [falling, partial curve, poor fit].

On to `Cc1ncoc1C(=O)Nc1ccccc1C(N)=O`, for which the AC50 was 5.01 µM [falling, single point]. Take `O=C(CSc1nnc(-c2cc3ccccc3cc2O)n1Cc1ccco1)c1ccc(F)cc1`: the AC50 was 10 µM [falling, partial curve].

As to `Cc1nnc(NC(=O)Cc2ccc(OCc3c(C)noc3C)cc2)s1`, the AC50 was 12.6 µM [falling, single point].

For `CCN(CC)c1ccc2cc(NC(=O)CCC(=O)O)c(=O)oc2c1`, the AC50 was 10 µM [rising, partial curve]. With `CN1C(=O)c2ccc(C(=O)NCc3ccccc3)cc2C1=O`, the half-maximal activity concentration (AC50) is 25.1 µM [rising, single point].

Turning to `CC1CCCN(C(=O)C2c3ccccc3C(=O)N3CCc4ccccc4C23)C1` (stereo not given), the concentration at half-maximal activity (AC50) was 0.0158 µM [falling, full curve, poor fit]. In the case of `CS(=O)(=O)N(Cc1ccco1)CC(O)Cn1c2ccccc2c2ccccc21` (stereo not given), the concentration at half-maximal activity (AC50) is 25.1 µM [falling, single point]. Take `COC(=O)[C@@H]1C[C@@]1(C)[C@@H](NC(=O)OCc1ccccc1)c1ccccc1`: the AC50 is 12.6 µM [rising, partial curve, poor fit]. With `COc1ccc(C2=NO[C@@H]3C(=O)N(C4CCCCC4)C(=O)[C@H]23)cc1OC` the figure was 1.58 µM [falling, partial curve]. As for `Cc1nc(SCC(=O)Nc2cc(C)on2)c2c3c(sc2n1)CCCC3`, the concentration at half-maximal activity (AC50) was 3.16 µM [rising, partial curve]. In the case of `COc1ccc2[nH]c3c(c2c1)CN(C)CC3`, the AC50 is 5.01 µM [falling, full curve, poor fit].

As for `CCOC(=O)c1cn(CC)c2ccc(Br)cc2c1=O`, the AC50 was 12.6 µM [rising, single point]. Take `COc1cccc(C2CC(=O)N3CN(c4cccc(Cl)c4C)CSC3=C2C#N)c1OC` (stereo not given): the AC50 was 6.31 µM [rising, partial curve]. On to `CC1CCCN(c2oc(-c3cccc4ccccc34)nc2C#N)C1` (stereo not given), for which the half-maximal activity concentration (AC50) was 3.16 µM [rising, partial curve]. As to `COc1ccccc1-c1nc(N(C)C)c2ccccc2n1`, the AC50 was 5.01 µM [rising, full curve]. For `COc1cc(OC)cc(C(=O)N2CCN(Cc3cccc(F)c3)CC2)c1`, the half-maximal activity concentration (AC50) is 3.16 µM [falling, single point].

For the molecule `O=C(Nc1ccc2c(c1)OCCO2)C1CCCN(S(=O)(=O)c2cccs2)C1` (stereo not given), the AC50 was 0.158 µM [falling, full curve, poor fit]. Take `CCOC(=O)C1CCN(c2nc3cc(OC)ccc3cc2C#N)CC1`: the AC50 is 12.6 µM [rising, single point].

In the case of `Cc1cccc(C(=O)Nc2ncc(CN3CCOCC3)s2)c1`, the AC50 was 0.00316 µM [falling, full curve, poor fit]. On to `CCOc1ccc(C(=O)Nc2c3c(nn2C(C)(C)C)CSC3)cc1OCC`, for which the AC50 is 12.6 µM [rising, partial curve]. With `CCc1ccccc1N(CC)C(=O)CCc1nc(-c2ccc(C)cc2)no1` the figure was 3.16 µM [rising, single point]; with `CCOc1ccc(NC(=O)CN2CCN(CC(=O)Nc3cc(OC)cc(OC)c3)CC2)cc1`, 1 µM [falling, full curve, poor fit]; with `COc1ccc(CC(NC(C)=O)C(=O)NC2CCN(c3c4c(nc5ncnn35)CCC4)CC2)cc1` (stereo not given), 0.00316 µM [falling, full curve, poor fit]. As for `Clc1ccc(-n2nnnc2Sc2ncnc3sccc23)cc1`, the AC50 is 6.31 µM [falling, partial curve, poor fit].

`COc1ccc2c(c1)c1nnc(SCC(=O)N3C(C)CCCC3C)nc1n2C` (stereo not given): the concentration at half-maximal activity (AC50) is 0.794 µM [rising, full curve]. With `COc1cccc(Cn2c(=O)c(-c3ccc(Cl)cc3)nc3cnc(N4CCNCC4)nc32)c1`, the AC50 was 2.51 µM [rising, full curve].

Turning to `c1ccn2c(SCc3cn4ccsc4n3)nnc2c1`, the AC50 is 0.126 µM [falling, full curve]. `COc1ccc2c(C)c(C(=O)NCC(C)O)oc2c1OC` (stereo not given): the AC50 is 6.31 µM [rising, partial curve]. The value for `CC(=O)c1c(C)nc2cc(Cl)ccc2c1N` was 10 µM [rising, partial curve]; that for `COc1ccc(-n2nnnc2S(=O)(=O)CC(=O)N2CCCCC2)cc1` was 1.58 µM [falling, full curve].

Turning to `C=CCn1c(=O)c2ccccc2n2c(SCc3nc(N)nc(Nc4ccccc4C)n3)nnc12`, the half-maximal activity concentration (AC50) is 12.6 µM [rising, partial curve]. As to `CCOC(=O)c1sc2nc(N3CCOCC3)c3c(c2c1N)CCC3`, the half-maximal activity concentration (AC50) is 10 µM [rising, partial curve].

For the molecule `COc1cc(C(C)=O)ccc1OCC(O)CNCC1(N2CCCCC2)CCCCC1` (stereo not given), the half-maximal activity concentration (AC50) is 5.01 µM [falling, single point].

Consider `CC(=O)Nc1ccc(S(=O)(=O)NCCc2cc3c(C)ccc(C)c3[nH]c2=O)cc1`, for which the AC50 is 12.6 µM [rising, single point]. The value for `COc1ccc(NC(=O)c2cc(-c3ccc(OC)c(OC)c3)on2)cc1OC` was 0.0251 µM [falling, full curve, poor fit]; that for `COc1ccccc1N1CCN(C(=O)N2CCOCC2)CC1` was 0.0631 µM [rising, full curve]; that for `Nc1cccc(-n2nncc2-c2ccc(Cl)cc2)c1` was 25.1 µM [rising, single point].

On to `COc1cccc(C(=O)Nc2c3c(nn2-c2cccc(C)c2C)CS(=O)(=O)C3)c1OC`, for which the half-maximal activity concentration (AC50) was 12.6 µM [rising, partial curve]. The value for `CCOC(=O)COn1c(=O)c(-c2cccs2)[n+]([O-])c2ccccc21` was 15.8 µM [rising, partial curve]. `O=C(N1CCOCC1)N(CCN1CCOCC1)Cc1cccc(Cl)c1`: the AC50 was 0.501 µM [falling, partial curve, poor fit]. With `CNc1nc(-c2ccc3c(c2)OCO3)nc2ccccc12` the figure was 5.01 µM [rising, partial curve]. For the molecule `COCCn1c(=S)[nH]c2cc(C(=O)N3CCN(c4ccccc4OC)CC3)ccc2c1=O`, the AC50 was 20 µM [rising, single point]. With `N[C@@H](Cc1cc(-c2ccc(Cl)cc2Cl)cc(CP(=O)(O)O)c1O)C(=O)O`, the concentration at half-maximal activity (AC50) is 31.6 µM [falling, single point]. Turning to `Cn1c(=O)c(C(=O)NCCO)c(O)c2ccccc21`, the AC50 was 0.00316 µM [falling, full curve, poor fit]. On to `Cn1cccc1Cc1nnc(SCC(=O)N2CCc3ccccc32)n1-c1ccc(F)cc1`, for which the concentration at half-maximal activity (AC50) was 5.01 µM [rising, partial curve]. Turning to `CCCOc1ccc2ccccc2c1/C=N/n1c(C)nnc1-n1nc(C)cc1C`, the AC50 was 1 µM [falling, partial curve, poor fit]. As for `NCCC[C@@H](CC(=O)N[C@@H]1CCNC[C@H]1C(=O)N[C@H](CC(=O)N[C@@H](CCC(=O)O)CC(=O)O)Cc1c[nH]c2ccccc12)NC(=O)C[C@H](Cc1c[nH]c2ccccc12)NC(=O)[C@@H]1CNCC[C@H]1N`, the half-maximal activity concentration (AC50) was 7.94 µM [falling, full curve, poor fit]. With `COc1cccc(Cn2c(=O)c(-c3cccc(C#N)c3)nc3cnc(N4CCOCC4)nc32)c1` the figure was 0.501 µM [rising, full curve]; with `C/C(NC1CCCCC1)=C(/C#N)C(=O)NCCN1CCOCC1`, 3.98 µM [falling, full curve]; with `O=C(COc1ccccc1O)Nc1ccc(Cl)cc1`, 2 µM [falling, full curve, poor fit]. As to `CCc1ccccc1NC(=O)N[C@@H](C)C(=O)OC`, the AC50 was 25.1 µM [rising, single point].

Take `COCCNS(=O)(=O)c1ccc2c(c1)oc(=O)c1cc(S(=O)(=O)NCCOC)ccc12`: the half-maximal activity concentration (AC50) was 25.1 µM [rising, single point]. With `COCCn1nnnc1C(C(C)C)N(Cc1cccnc1)Cc1cc2cc(OC)ccc2[nH]c1=O` (stereo not given), the AC50 was 20 µM [rising, single point]. With `COc1cc2c(=O)n(CC3CCCO3)c(=O)n(CC(=O)Nc3cccc(Cl)c3)c2cc1OC` (stereo not given) the figure was 10 µM [rising, single point]; with `Cc1ccsc1C(=O)OC1CCOC1=O` (stereo not given), 5.01 µM [falling, single point].

As to `S=c1[nH]nc(CSc2nc3ccccc3s2)o1`, the AC50 is 12.6 µM [falling, partial curve]. As to `CC1=C(C(=O)Nc2ccccn2)C(c2ccc(Br)cc2)n2ncnc2N1` (stereo not given), the AC50 is 0.1 µM [falling, full curve]. For `Cn1c(=O)c2cn(-c3ccc4c(c3)OCCO4)cc2n(C)c1=O`, the concentration at half-maximal activity (AC50) is 7.94 µM [rising, partial curve]. For `Cn1c(C(O)c2ccc3c(c2)OCO3)nc2ccccc21` (stereo not given), the AC50 was 0.00398 µM [falling, full curve, poor fit]. For `Nc1nc2n(n1)C1(CCCCC1)C1=C(CCCC1)N2`, the AC50 was 0.00316 µM [falling, full curve]. The value for `Cc1c2ccccc2c(CSC(=N)N)c2ccccc12` was 3.98 µM [rising, partial curve]; that for `CCOC(=O)c1ccc(NC(=O)CCc2nc(-c3ccc(C)cc3)no2)cc1` was 3.98 µM [falling, partial curve]. `COc1cc2nc(CN(C)CC(=O)Nc3ccc(N4CCOCC4)cc3)[nH]c(=O)c2cc1OC`: the AC50 is 12.6 µM [rising, single point].

These data come from PubChem BioAssay AID662 (National Center for Advancing Translational Sciences (NCATS), 2007).
